# Several values for one entry are separate records, joined by “and”; a condition that tells them apart may be missing. Identical values can stand only once. Further values from the same series stand in other lists.
# System: Lmna G609G/+ mouse
# Assay: Body weight of Lmna G609G/+ mice
# Type: in vivo
# Excerpt: Fig. 3 In vivo favorable effect of SLC-D011. A Gross morphology of Lmna^G609G/G609G mice (10 weeks old) was ameliorated after injection with SLC-D011. At the same age, the experimental group (D011) of mice were larger than vehicle-injected control (Con) subjects regardless of gender. B, C SLC-D011 increases body weight B and extends life span C of Lmna^G609G/G609G progeria model mouse (Con: n = 8; SLC-D011: n = 8). Compared with 14.8 weeks of average (ave) life span with maximum (max) life span of 15.5 weeks, 20 mg/kg of intraperitoneal (i.p) injection (twice a week) of SLC-D011 could extend the life span upto 19 weeks (max = 21 weeks). Lmna^G609G/G609G mice were injected with SLC-D011 from age of 5-week old, *p < 0.05. D Gross morphology of SLC-D011 injected Lmna^G609G/+ mouse. […] E SLC-D011 increases body weights of Lmna^G609G/+ mice (Con: n = 10; SLC-D011: n = 11), *p < 0.05. F Favorable effect of SLC-D011 on life span of Lmna^G609G/+ mice. Compared with vehicle-injected control group (ave = 46.7 weeks and max = 48 weeks), SLC-D011 treatment obviously extended the average life span to 63 weeks (max = 64 weeks). The injection was started from 32 weeks old, **p < 0.001. “Con” means vehicle (a solvent composed of DMSO and PBS)-injected mouse group. TEXT PRINTED IN THE PICTURE: (C) D011: Kaplan-Meier survival curve in Lmna^G609G/G609G: Ave=19; Kaplan-Meier survival curve in Lmna^G609G/G609G: Max=21 | (F) D011: Kaplan-Meier survival curve in Lmna^G609G/+: Ave=63; Kaplan-Meier survival curve in Lmna^G609G/+: Max=64 DOUBTS OF THE COPYIST ABOUT THIS PICTURE: Panels C and F: the Ave/Max labels are not printed with a group name. They are assigned to D011 (solid curve) or Con (dashed curve) only by their position beside the curves. / Panel C Ave=14.8, Max=15.5 and panel F Ave=46.7, Max=48 stand beside the dashed Con curve. They are left out because Con is the control group, not a substance. / No unit is printed with the Ave/Max values. Only the axis reads Age (weeks).
# Animal experiments were performed in a facility certified by the Association for Assessment and Accreditation of Laboratory Animal Care in compliance with animal policies approved by Pusan National University. The mouse work was performed under the study protocol PNU-2019-2181, as approved by the Institutional Animal Care and Use Committee. Lmna^G609G/609G mice were generated by timed mating of heterozygous Lmna^G609G/+ provided by Carlos López-Otín (Universidad de Oviedo, Asturias, Oviedo, Spain). SLC-D011 was mixed with dimethyl sulfoxide (DMSO) and phosphate-buffered saline (PBS). It was then intraperitoneally injected into mice (20 mg/kg twice per week from 5-week-old). SLC-D011 and lonafarnib were orally administrated to mice daily at a concentration of 10 mg/ml in monoolein-based solution. Lonafarnib was generously provided by Merck, the Progeria Research Foundation (PRF) and the PRF Lonafarnib Pre-clinical Drug Supply Program. Control mice were treated with monoolein-based solution alone in the same way. Lmna^G609G/609G mice were treated with clear chemical solution throughout the life span, starting from 5 weeks of age. Lmna^G609G/+ mice were treated via intraperitoneal and oral administrations, starting from 32 weeks of age.
# Fig. S10. Or al administration of SLC-D011 suppresses premature aging features of LmnaG609G/+ mi c e . A.
# Gross morphology of SLC-D011 treated Lmna G609G/+ mice at 36 weeks old. B. Oral administration of SLC-
# D011 increases body weight s of LmnaG609G/+ mi c e (untreated: n=11; SLC-D011: n=12), * p<0.05. C. […]
# intensity of H3K9me3 levels in lung, liver, and kidney tissues of age-matched Lmn a +/+ mouse, untreated
# LamnG609G/+ mouse and two progerinin- treated LmnaG609G/+ mice (n = 2 independent experiments; one
# Student’s t -test), **p < 0.001,*p< 0.05, N.S: not significant .AU, arbitrary units.
# Fig. S12. […] A. SLC-D011, compar ed to lonafarnib, reduces […]
smiles,measurement,setting,value
CC1(C)Oc2cc3oc(=O)ccc3cc2C[C@@H]1OC/C=C/c1ccccc1 [SLC-D011],Lmna G609G/+ body weight,"oral administration, week 56, Ave",0.7247
same,Lmna G609G/+ body weight,"oral administration, week 56, individual mouse",0.7273 and 0.6957 and 0.7368 and 0.7391
same,Lmna G609G/+ body weight,"oral administration, week 56, individual mouse, relative body weight",0.7273 and 0.6957 and 0.7368 and 0.7391
same,Lmna G609G/+ body weight,"oral administration, week 57, Ave",0.7124
same,Lmna G609G/+ body weight,"oral administration, week 57, individual mouse",0.6818 and 0.6957 and 0.7368 and 0.7391 and 0.7273 and 0.6364
same,Lmna G609G/+ body weight,"oral administration, week 58, Ave",0.7038
same,Lmna G609G/+ body weight,"oral administration, week 58, individual mouse",0.6818 and 0.6522 and 0.7368 and 0.7391 and 0.7273
same,Lmna G609G/+ body weight,"oral administration, week 58, individual mouse, relative body weight",0.6818 and 0.6522 and 0.7368 and 0.7391 and 0.7273
same,Lmna G609G/+ body weight,"oral administration, week 59, Ave",0.6842
same,Lmna G609G/+ body weight,"oral administration, week 59, individual mouse",0.6818 and 0.6522 and 0.7368 and 0.6957 and 0.7273 and 0.5909
same,Lmna G609G/+ body weight,"oral administration, week 60, Ave",0.6602
same,Lmna G609G/+ body weight,"oral administration, week 60, individual mouse",0.6364 and 0.6522 and 0.6842 and 0.6957 and 0.5652
same,Lmna G609G/+ body weight,"oral administration, week 60, individual mouse, relative body weight",0.6364 and 0.6522 and 0.6842 and 0.6957 and 0.5652
same,Lmna G609G/+ body weight,"oral administration, week 61, Ave",0.653
same,Lmna G609G/+ body weight,"oral administration, week 61, individual mouse",0.6364 and 0.6522 and 0.6842 and 0.5652
same,Lmna G609G/+ body weight,"oral administration, week 62, Ave",0.5992
same,Lmna G609G/+ body weight,"oral administration, week 62, individual mouse",0.5909 and 0.5652 and 0.6842
same,Lmna G609G/+ body weight,"oral administration, week 62, individual mouse, relative body weight",0.5909 and 0.5652 and 0.6842
same,Lmna G609G/+ body weight,"oral administration, week 63, Ave",0.5294
same,Lmna G609G/+ body weight,"oral administration, week 63, individual mouse",0.5455 and 0.5652 and 0.6316 and 0 and 0.5217
same,Lmna G609G/+ body weight,"oral administration, week 64, Ave",0.3905
same,Lmna G609G/+ body weight,"oral administration, week 64, individual mouse",0.4545 and 0.5217 and 0.5263 and 0.5652 and 0
same,Lmna G609G/+ body weight,"oral administration, week 64, individual mouse, relative body weight",0.4545 and 0.5217 and 0.5263 and 0.5652 and 0
same,Lmna G609G/+ body weight,"oral administration, week 65, Ave",0.2851
same,Lmna G609G/+ body weight,"oral administration, week 65, individual mouse",0 and 0.4737 and 0.4783 and 0.5652
same,Lmna G609G/+ body weight,"oral administration, week 66, Ave",0
same,Lmna G609G/+ body weight,"oral administration, week 66, individual mouse",0
same,Lmna G609G/+ body weight,"oral administration, week 66, individual mouse, relative body weight",0
same,Lmna G609G/+ body weight,"week 35, IP injection with SLC-D011, individual mouse, ratio to week 32",1.037 and 0.9583
same,Lmna G609G/+ body weight,"week 37, IP injection with SLC-D011, individual mouse, ratio to week 32",0.9565
same,Lmna G609G/+ body weight,"week 38, IP injection with SLC-D011, individual mouse, ratio to week 32",0.9615
same,Lmna G609G/+ body weight,"week 39, IP injection with SLC-D011, individual mouse, ratio to week 32",1
same,Lmna G609G/+ body weight,"week 42, IP injection with SLC-D011, individual mouse, ratio to week 32",0.875
same,Lmna G609G/+ body weight,"week 48, IP injection with SLC-D011, individual mouse, ratio to week 32",0.7917 and 0.875
same,Lmna G609G/+ body weight,"week 49, IP injection with SLC-D011, individual mouse, ratio to week 32",0.7917 and 0.875
same,Lmna G609G/+ body weight,"week 50, IP injection with SLC-D011, individual mouse, ratio to week 32",0.875
same,Lmna G609G/+ body weight,"week 51, IP injection with SLC-D011, individual mouse, ratio to week 32",0.875
same,Lmna G609G/+ body weight,"week 52, IP injection with SLC-D011, individual mouse, ratio to week 32",0.7778 and 0.7407 and 0.7917
same,Lmna G609G/+ body weight,"week 53, IP injection with SLC-D011, individual mouse, ratio to week 32",0.7407 and 0.7778
same,Lmna G609G/+ body weight,"week 54, IP injection with SLC-D011, individual mouse, ratio to week 32",0.7407 and 0.7778 and 0.8462
same,Lmna G609G/+ body weight,"week 55, IP injection with SLC-D011, individual mouse, ratio to week 32",0.7407 and 0.7778
same,Lmna G609G/+ body weight,"week 56, IP injection with SLC-D011, individual mouse, ratio to week 32",0.7407 and 0.7778
same,Lmna G609G/+ body weight,"week 57, IP injection with SLC-D011, individual mouse, ratio to week 32",0.7407
same,Lmna G609G/+ body weight,"week 58, IP injection with SLC-D011, individual mouse, ratio to week 32",0.7407 and 0.7917 and 0.7037 and 0.7391 and 0.75
same,Lmna G609G/+ body weight,"week 59, IP injection with SLC-D011, individual mouse, ratio to week 32",0.7778 and 0.6957 and 0.7917 and 0.7692 and 0.7037 and 0.75
same,Lmna G609G/+ body weight,"week 60, IP injection with SLC-D011, individual mouse, ratio to week 32",0.6667 and 0.6087 and 0.7083 and 0.5926 and 0.75
same,Lmna G609G/+ body weight,"week 61, IP injection with SLC-D011, individual mouse, ratio to week 32",0.6667 and 0.7083 and 0 and 0.6923
same,Lmna G609G/+ body weight,"week 62, IP injection with SLC-D011, individual mouse, ratio to week 32",0.6667 and 0.6087
same,Lmna G609G/+ body weight,"week 63, IP injection with SLC-D011, individual mouse, ratio to week 32",0.5926 and 0 and 0.5833
same,Lmna G609G/+ body weight,"week 64, IP injection with SLC-D011, individual mouse, ratio to week 32",0

# Source: paper PMC7782499, “Progerinin, an optimized progerin-lamin A binding inhibitor, ameliorates premature senescence phenotypes of Hutchinson-Gilford progeria syndrome” (Communications Biology, 2021)
